# Some of the results follow.
# System: T1, CTL2-GFP (C. trachomatis L2/434/Bu, GFP-expressing)
# T1 construct: L2/434/Bu, GFP-expressing
# Parameters: species or system HeLa; Intracellular C. trachomatis growth in HeLa cells, bulk GFP fluorescence relative to DMSO
# Conditions: bulk GFP, single well; 28.5 h, 10 µM; inhibitor
row,Compound,% of control remaining
1,O=C(c1cccnc1)C1CCN(C(=O)c2ccccc2F)CC1 [CBK283853],105.81%
2,CCC(=O)N1CCCC1c1nc(C)c2c(n1)N(Cc1ccccc1OC)CCC2 (centres unmarked) [CBK285642],105.572%
3,COC(=O)C(=O)N1CC[C@H]2NC(=O)N(Cc3ccccc3)C(=O)[C@H]21 [CBK289292],125.272%
4,CCCCn1nc2[nH]c(=O)cc(C(F)F)c2c1C [CBK288011],88.2809%
5,O=C(CN1CCCC2(CCN(C(=O)c3ccoc3)C2)C1)Nc1ccc(F)c(Cl)c1 (centres unmarked) [CBK132822],96.4771%
6,COc1ccc(CN2CCC(N3CCc4ccccc4C3)CC2)cc1OCc1ccccc1 [CBK264629G],122.755%
7,O=C(O)c1cccc(C(=O)c2cccc(C(=O)O)c2)c1 [CBK263933],121.806%
8,COc1ccc(C2C=C(C)Nc3nc(N)nn32)cc1 (centres unmarked) [CBK287906],133.387%
9,O=C(CC(NCCO)C(=O)O)Nc1cccc(C(F)(F)F)c1 (centres unmarked) [CBK267065],94.7612%
10,Cc1ccnc(SCC(=O)Nc2sc3c(c2C(=O)Nc2ccccc2)CCCC3)n1 [CBK266348],111.19%
11,CC(C)CC1OC(NC2CCCCCC2)=NC1=O (centres unmarked) [CBK074901],118.342%
12,Cc1ccc(NC(=O)Cn2cnc3c2c(=O)n(C)c(=O)n3C)c(C)c1 [CBK133276],144.922%
13,CC1(C)CC(NC(=O)COc2ccc([N+](=O)[O-])cc2)CC(C)(C)N1 [CBK266806],136.275%
14,Cc1nc([N+](=O)[O-])cn1CCC(=O)Nc1ccccc1Oc1ccccc1Cl [CBK298319],135.139%
15,COc1ccc(C(=O)N2CCc3ccccc32)c(OC)n1 [CBK200281],100.002%
16,Cc1c(Cl)c([N+](=O)[O-])nn1CC(=O)N1CCN(Cc2ccccc2)CC1 [CBK261720],112.365%
17,CCCN1CCc2c(sc3nc(SCC(=O)c4ccccc4)n(-c4ccccc4)c(=O)c23)C1 [CBK262587],114.281%
18,CCOC(=O)C1CCN(CCOc2ccc3ccccc3c2)CC1 [CBK270128C],112.073%
19,Cc1ccc(CN2CC[C@H]3NC(=O)c4ccccc4OCC/C=C/C[C@H]3C2)cn1 [CBK292056],135.02%
20,CCCC(=O)N1CCC(c2nc(Cc3cccs3)no2)C1 (centres unmarked) [CBK283034],118.849%
21,CN1CCN(C(=O)CCC2CCCO2)C(c2ccccc2)C1 (centres unmarked) [CBK282015],130.299%
22,FC(F)(F)c1cccc(OCCN2CCOCC2)c1 [CBK269669C],130.466%
23,Cc1c(-c2ccnc(N)n2)nnn1-c1ccc(Cl)cc1Cl [CBK018733],90.3269%
24,CN(C)C(=O)c1ccc(-c2ccc3c(c2)COC(C2CCN(C(=O)CC(C)(C)c4ccccc4)CC2)O3)cc1 (centres unmarked) [CBK149765],94.9424%
25,Cc1ccc(OC(C)C(=O)N(C)c2ccccc2)cc1 (centres unmarked) [CBK268645],79.7105%
26,Cc1cc(O)c(C(=O)Nc2cccc(Cl)c2)c(=O)n1Cc1ccco1 [CBK291143],111.843%

row,Compound,% of control remaining
1,COc1ccc(C(=O)N2CCN(Cc3cc(OC)ccc3OC)CC2)cc1 [CBK263032],118.86%
2,COc1ccc(C(=O)C(OC(=O)c2cc(O)nc3ccccc23)c2ccccc2)cc1 (centres unmarked) [CBK264083],104.07%
3,CCN1CCN(Cc2c(C(F)(F)F)[nH]c3ncccc23)CC1 [CBK285362],114.24%
4,COc1ccc(S(=O)(=O)N(C)c2ccc(N3CCNCC3)c3ccccc23)cc1 [CBK022404C],88.3548%
5,O=S(=O)(c1ccc(-c2ccccc2)cc1)N1CCCN(CCCOC2CCCCO2)CC1 (centres unmarked) [CBK063137],75.1328%
6,COC(=O)CCc1ccc(S(=O)(=O)N2CCCN(Cc3c(-c4ccccc4)noc3C)CC2)cc1 [CBK063011],94.3791%
7,CC1(C)CC(O[Si](C)(C)OC2CC(C)(C)NC(C)(C)C2)CC(C)(C)N1 [CBK261942],102.013%
8,CC(C)c1cc(C(C)C)c(S(=O)(=O)n2cnc3c2c(=O)[nH]c(=O)n3C)c(C(C)C)c1 [CBK018772],106.78%
9,CC(Oc1cccc(F)c1)C(=O)N(Cc1cccnc1)CC1CCCO1 (centres unmarked) [CBK305313],112.562%
10,NC(=O)c1ccc(NC(=O)N2CCc3ccccc3C2)cc1 [CBK155299],108.321%
11,Cn1c(=O)c2c(ncn2Cc2noc(-c3ccoc3)n2)n(C)c1=O [CBK304945],107.276%
12,NS(=O)(=O)c1ccc(NC(=O)/C(=C/c2ccc(Br)cc2)NC(=O)c2ccccc2)cc1 [CBK262109],60.7361%
13,CN(C(=O)C1CCN(C(=O)c2ccoc2)CC1)C(c1ccc(F)cc1)c1ccccn1 (centres unmarked) [CBK060206],118.05%
14,O=C(CSc1ccc2ccccc2c1)NCc1ccco1 [CBK269699],129.131%
15,Cc1ccc(Cn2ncc3c(N4CCCC4)ncnc32)cc1 [CBK287601],130.984%
16,Cc1nc(C)n(CC2CCCCN2Cc2cn3ccccc3n2)n1 (centres unmarked) [CBK304008],97.8817%
17,CCN1CCN(S(=O)(=O)c2cccc3c(S(=O)(=O)N4CCN(CC)CC4)cccc23)CC1 [CBK269611],99.0564%
18,CCC(=O)N1CCC2(CC1)CNC(=O)c1cc(C)ccc1O2 [CBK282468],126.438%
19,O=S(=O)(NCc1ccccc1)c1ccc(Cl)c(S(=O)(=O)NCc2ccccc2)c1 [CBK263251],112.5%
20,O=C(Cn1cccc(C(=O)NCc2ccccc2)c1=O)NC1(c2ccccc2)CCCC1 [CBK286058],120.466%
21,COc1cc(Cc2c(OCCN(C)C)nc3ccccn3c2=O)cc(OC)c1OC [CBK005004C],124.556%
22,Cc1cc(-c2nccnc2NCCCN2CCOCC2)cc(C)c1O [CBK036598],196.569%
23,Cc1cccc(=O)n1CCCn1cnc2nccnc2c1=O [CBK307186],87.988%
24,O=C(O)c1cc(NC(=O)C(c2ccccc2)c2ccccc2)cc(C(=O)O)c1 [CBK261191],96.6997%
25,O=c1[nH]c2ccccc2n1CCCN1CCC2(CC1)CN(CCO)c1ccccc12 [CBK137133],116.077%
26,CN(Cc1ccccc1)C1(O)C(=O)Nc2ccc(Cl)cc21 (centres unmarked) [CBK269703],116.712%

# Looked up above:
# O=C(Cn1cccc(C(=O)NCc2ccccc2)c1=O)NC1(c2ccccc2)CCCC1 [CBK286058] | % of control remaining: 120.466%
# CC1(C)CC(O[Si](C)(C)OC2CC(C)(C)NC(C)(C)C2)CC(C)(C)N1 [CBK261942] | % of control remaining: 102.013%
# Cc1ccc(Cn2ncc3c(N4CCCC4)ncnc32)cc1 [CBK287601] | % of control remaining: 130.984%
# COc1ccc(C(=O)N2CCN(Cc3cc(OC)ccc3OC)CC2)cc1 [CBK263032] | % of control remaining: 118.86%
# O=S(=O)(c1ccc(-c2ccccc2)cc1)N1CCCN(CCCOC2CCCCO2)CC1 (centres unmarked) [CBK063137] | % of control remaining: 75.1328%

# More compounds.

row,Compound,% of control remaining
1,O=[N+]([O-])c1ccc(NC(c2ccccc2)C2CC2)nc1 (centres unmarked) [CBK295317],116.944%
2,Cc1nc(N2CCN(C)CC2)ncc1C(=O)NCCSc1cnn[nH]1 [CBK306623],121.713%
3,Cc1ccc(S(=O)(=O)N(CC(=O)NC2CCCC2)Cc2ccccc2)cc1 [CBK263166],123.643%
4,Cc1ccc(C(=O)O)cc1S(=O)(=O)Nc1ccc(-c2cn3ccsc3n2)cc1 [CBK296688],100%
5,Cc1cccc2[nH]c(-c3ccccc3)nc12 [CBK000110],119.664%
6,O=C(/C=C\c1cn(-c2ccccc2)nc1-c1cccc([N+](=O)[O-])c1)n1nnc2ccccc21 [CBK265273],138.336%
7,Fc1ccccc1-c1nccnc1NCc1ccncc1 [CBK037540],169.781%
8,COc1ccc(F)c(CNCC2CCN(C(=O)OC(C)(C)C)CC2)c1 [CBK056716],145.274%
9,Cc1noc(NS(=O)(=O)c2ccc(NC(=O)/C=C/c3ccc(Cl)cc3Cl)cc2)c1C [CBK263115],100%
10,Cn1c(=O)n(CC(=O)NCCc2ccccc2)c2cccnc21 [CBK283910],145.081%
11,O=C(Cc1cccc2ccccc12)Nc1nnc(C2=COCCO2)o1 [CBK287414],148.296%
12,C#CC1(OC(=O)CC)CCN(CCCC(=O)c2ccc(F)cc2)CC1 [CBK025277C],99.6705%
13,CC1(C)CC(=O)C2=C(C1)Nc1ccccc1N(CC(=O)O)C2c1cccs1 (centres unmarked) [CBK286597],110.087%
14,Cc1cc(S(=O)(=O)Nc2cc(C3CC3)nn2C)c(C)cc1Cl [CBK043994],99.2373%
15,Nc1nc(CSCCO)nc(Nc2ccc(F)cc2)n1 [CBK265542],130.791%
16,Clc1ccc(CN2CCCN(c3cc(OC4CCCCC4)ncn3)CC2)cc1Cl [CBK083338T],111.699%
17,CCCc1[nH]nc(O)c1Cc1ccccc1CS(=O)(=O)c1ccccc1 [CBK074347],126.754%
18,NCc1ccc(C(=O)N(CCc2cc(C(F)(F)F)cc(C(F)(F)F)c2)c2ccc(Cl)c(Cl)c2)cc1 [CBK008632T],62.4071%
19,CCN(CC)C(=O)[C@@H]1CCCN(C2CCN(C(=O)c3c4ccccc4cc4ccccc34)CC2)C1 [CBK066966C],115.422%
20,CN1C(=O)CC(NCc2ccc(S(N)(=O)=O)cc2)C1=O (centres unmarked) [CBK262352],113.443%
21,C=CCN1C(=O)CC2(C1=O)C(=O)N(CCCN1C(=O)c3ccccc3C1=O)c1ccc(Cl)cc12 (centres unmarked) [CBK075443],137.12%
22,CCc1c(C)nc2c(C)cccc2c1SCC(=O)O [CBK263554],119.876%
23,COc1ccc(C)cc1C1(CNC(=O)C2CC2C(=O)O)CCOCC1 (centres unmarked) [CBK304492],136.381%
24,CN(C)C(=O)CN1C(=O)CC2(C1=O)C(=O)N(CC(=O)O)c1ccc(F)cc12 (centres unmarked) [CBK076119],95.0747%
25,O=C1CNC(=O)C2(C/C=C/C[C@H]3COCC[C@H]3N1)CCN(C(=O)Cc1cccnc1)CC2 [CBK292068],129.405%

# From publication PMC12040169 (PLOS Biology, 2025)
